Data set [1] concerns the target T1, POU1F1 wild type (PIT1) (Homo sapiens) (UniProt P28069).
T1 sequence (looked up, limits assumed): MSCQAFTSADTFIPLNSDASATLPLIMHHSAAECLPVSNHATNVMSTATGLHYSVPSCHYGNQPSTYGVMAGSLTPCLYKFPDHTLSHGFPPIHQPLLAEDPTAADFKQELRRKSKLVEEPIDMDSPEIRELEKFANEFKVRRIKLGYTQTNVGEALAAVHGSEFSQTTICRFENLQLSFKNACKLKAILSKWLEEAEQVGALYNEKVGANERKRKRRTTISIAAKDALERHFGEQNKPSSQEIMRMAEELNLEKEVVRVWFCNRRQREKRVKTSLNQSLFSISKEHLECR
Kind of data set: EMSA with supershift. The conditions noted are these: 20 mM HEPES-NaOH pH 7.9, 50 mM KCl, 0.1 mM EDTA, 10% glycerol, 0.5 mM DTT, 2 ug poly(dI-dC) in 20 uL, 20 min at room temperature, 5% PAGE at 4 C, protein in a lysate after overexpression, label: 32P (T4 PNK). (In general: Mobility shift assays separate free from complexed probe on a gel.)

For data set [2], the target named is T2, POU1F1 E230K (Homo sapiens) (UniProt P28069).
T2 sequence (looked up, limits assumed): T1 sequence (looked up, limits assumed) with E230K
Kind of data set: EMSA. The note with it: 20 mM HEPES-NaOH pH 7.9, 50 mM KCl, 0.1 mM EDTA, 10% glycerol, 0.5 mM DTT, 2 ug poly(dI-dC) in 20 uL, 20 min at room temperature, 5% PAGE at 4 C, protein in a lysate after overexpression, label: 32P (T4 PNK).

Data set [3] deals with T3, POU1F1 A158P (Homo sapiens) (UniProt P28069).
T3 sequence (looked up, limits assumed): T1 sequence (looked up, limits assumed) with A158P
Kind of data set: EMSA. The note with it: 20 mM HEPES-NaOH pH 7.9, 50 mM KCl, 0.1 mM EDTA, 10% glycerol, 0.5 mM DTT, 2 ug poly(dI-dC) in 20 uL, 20 min at room temperature, 5% PAGE at 4 C, protein in a lysate after overexpression, label: 32P (T4 PNK).

The target of data set [4] is T4, POU1F1 K216E (Homo sapiens) (UniProt P28069).
T4 sequence (looked up, limits assumed): T1 sequence (looked up, limits assumed) with K216E
Kind of data set: EMSA. The note with it: 20 mM HEPES-NaOH pH 7.9, 50 mM KCl, 0.1 mM EDTA, 10% glycerol, 0.5 mM DTT, 2 ug poly(dI-dC) in 20 uL, 20 min at room temperature, 5% PAGE at 4 C, protein in a lysate after overexpression, label: 32P (T4 PNK).

Data set [5] concerns the target T5, POU1F1 P76L (Homo sapiens) (UniProt P28069).
T5 sequence (looked up, limits assumed): T1 sequence (looked up, limits assumed) with P76L
Kind of data set: EMSA. The conditions noted are these: 20 mM HEPES-NaOH pH 7.9, 50 mM KCl, 0.1 mM EDTA, 10% glycerol, 0.5 mM DTT, 2 ug poly(dI-dC) in 20 uL, 20 min at room temperature, 5% PAGE at 4 C, protein in a lysate after overexpression, label: 32P (T4 PNK).

Data set [6] has as its target T6, POU1F1 R172Q (Homo sapiens) (UniProt P28069).
T6 sequence (looked up, limits assumed): T1 sequence (looked up, limits assumed) with R172Q
Kind of data set: EMSA. The note with it: text: reduced, 20 mM HEPES-NaOH pH 7.9, 50 mM KCl, 0.1 mM EDTA, 10% glycerol, 0.5 mM DTT, 2 ug poly(dI-dC) in 20 uL, 20 min at room temperature, 5% PAGE at 4 C, protein in a lysate after overexpression, label: 32P (T4 PNK).

Data set [7] has as its target T7, POU1F1 R271W (Homo sapiens) (UniProt P28069).
T7 sequence (looked up, limits assumed): T1 sequence (looked up, limits assumed) with R271W
Kind of data set: EMSA. The note with it: 20 mM HEPES-NaOH pH 7.9, 50 mM KCl, 0.1 mM EDTA, 10% glycerol, 0.5 mM DTT, 2 ug poly(dI-dC) in 20 uL, 20 min at room temperature, 5% PAGE at 4 C, protein in a lysate after overexpression, label: 32P (T4 PNK).

In data set [8] the test system is POU1F1 wild type (PIT1) + GATA2. Kind of data set: EMSA with supershift. The conditions noted are these: POU1F1-GATA2 complex, faint band; 20 mM HEPES-NaOH pH 7.9, 50 mM KCl, 0.1 mM EDTA, 10% glycerol, 0.5 mM DTT, 2 ug poly(dI-dC) in 20 uL; 20 min at room temperature; 5% PAGE at 4 C; protein in a lysate after overexpression; label: 32P (T4 PNK).
For the next data set, the system named is POU1F1 K216E + GATA2. Kind of data set: EMSA. The note with it: POU1F1-GATA2 complex not observed; 20 mM HEPES-NaOH pH 7.9, 50 mM KCl, 0.1 mM EDTA, 10% glycerol, 0.5 mM DTT, 2 ug poly(dI-dC) in 20 uL; 20 min at room temperature; 5% PAGE at 4 C; protein in a lysate after overexpression; label: 32P (T4 PNK).
The target of a further data set is T8, GATA2 (Mus musculus) (UniProt O09100).
T8 sequence (looked up, limits assumed): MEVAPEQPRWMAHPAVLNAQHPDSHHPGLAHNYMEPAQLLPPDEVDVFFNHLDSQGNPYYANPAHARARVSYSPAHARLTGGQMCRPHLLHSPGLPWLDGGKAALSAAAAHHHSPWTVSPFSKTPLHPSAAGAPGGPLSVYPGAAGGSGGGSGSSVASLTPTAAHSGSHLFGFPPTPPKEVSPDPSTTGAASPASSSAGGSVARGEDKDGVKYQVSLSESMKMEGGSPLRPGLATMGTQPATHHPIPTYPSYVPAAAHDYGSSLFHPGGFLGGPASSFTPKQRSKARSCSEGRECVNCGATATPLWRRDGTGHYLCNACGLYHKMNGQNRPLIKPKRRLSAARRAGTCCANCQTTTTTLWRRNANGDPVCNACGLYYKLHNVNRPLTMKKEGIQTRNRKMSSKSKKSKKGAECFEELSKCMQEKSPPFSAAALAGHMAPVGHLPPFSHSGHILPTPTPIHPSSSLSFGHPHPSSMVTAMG
Kind of data set: EMSA. The conditions noted are these: GATA2 monomer and dimer bands; 20 mM HEPES-NaOH pH 7.9, 50 mM KCl, 0.1 mM EDTA, 10% glycerol, 0.5 mM DTT, 2 ug poly(dI-dC) in 20 uL; 20 min at room temperature; 5% PAGE at 4 C; protein in a lysate after overexpression; label: 32P (T4 PNK).

The subject of another data set is POU1F1 R172Q + GATA2. Kind of data set: EMSA. The conditions noted are these: POU1F1-GATA2 complex, text: binding reduced; 20 mM HEPES-NaOH pH 7.9, 50 mM KCl, 0.1 mM EDTA, 10% glycerol, 0.5 mM DTT, 2 ug poly(dI-dC) in 20 uL; 20 min at room temperature; 5% PAGE at 4 C; protein in a lysate after overexpression; label: 32P (T4 PNK).
A further data set has as its system POU1F1 E230K + GATA2. Kind of data set: EMSA. The note with it: POU1F1-GATA2 complex; 20 mM HEPES-NaOH pH 7.9, 50 mM KCl, 0.1 mM EDTA, 10% glycerol, 0.5 mM DTT, 2 ug poly(dI-dC) in 20 uL; 20 min at room temperature; 5% PAGE at 4 C; protein in a lysate after overexpression; label: 32P (T4 PNK).
Where [9] appears, read: results: attenuated, discussion: fails to bind.
[10] abbreviates: table cell ambiguous (- or +/-).
Setting [11] is: results: reduced, discussion: fails to bind.

Positions count from the first letter of the chain named. The exact form of at least one protein or probe is not confirmed. Where cells or extracts were used, other partners may take part. For part of these data: Negatives hold for the conditions tested. For part of these data: Protein sequences can lack the tags named with them. For part of these data: Weaker means in comparison with the reference protein, sequence or condition of that experiment. For part of these data: At least one verdict rests on a figure or table, not on a statement of the authors.

Turning to “AGTGAATCAAATGCAATTGTATAAACAAGAAGATC (double strand) [hTSHβ-SR]”, the binding result in data set [1] (monomer) is recorded as “binds”; in data set [2], “binds more weakly”; in data set [3], “binds more weakly”; in data set [4] (setting [9]) it was “no binding”; in [5], “binds more weakly”; in [6] (setting [10]) it was “binds more weakly”. In addition, the binding result in [7] (setting [11]) is reported as “no binding”.

For the sequence “TGCCTGATTATATATATATTCATGAAGGTGTCG (double strand) [rPRL-1P]”, the binding result in data set [1] (monomer and dimer) was “binds”; in [2] (monomer-dominant), “binds more weakly”; in data set [3] (monomer and dimer reduced), “binds more weakly”; in data set [4] (monomer and dimer not reduced), “binds”; in [5] (monomer and dimer reduced) it was “binds more weakly”; in data set [6] (table: -), “binds more weakly”. In addition, the binding result in [7] (increased monomer, not dimer) is “binds”.

For the sequence “AGTATGAATTTTCAATAGATGCTTTTCAGATAAGAAA (double strand) [hTSHβ-PG]”, the binding result in data set [1] (monomer) is “binds”; in [2], “binds more weakly”; in [3] it was “binds more weakly”; in data set [4] (setting [9]), “no binding”; in [5] it was “binds more weakly”; in data set [6] (setting [10]) it was “binds more weakly”. In [7] (setting [11]), the binding result is “no binding”.

As to “AGTATGAATTTTCAATAGATGCTTTTCAGATAAGAAAGCAGTGAATCAAATGCAATTGTATAAACAAGAAGATC (double strand) [hTSHβ-PGSR]”, the binding result is reported as “binds” in [1] (monomer and dimer); “binds” in [8]; “no binding” in the data set with POU1F1 K216E + GATA2; “binds” with GATA2 (Mus musculus); “no binding” with POU1F1 R172Q + GATA2; “no binding” in the data set on POU1F1 E230K + GATA2.

The values are drawn from article PMC12785802.
